Results: paper PMC7962367

Amino acid sequences for entries named in this document (tags omitted). A change or cut given only in a name is not applied to a line headed by its entry.
UniProt Q8R5H1: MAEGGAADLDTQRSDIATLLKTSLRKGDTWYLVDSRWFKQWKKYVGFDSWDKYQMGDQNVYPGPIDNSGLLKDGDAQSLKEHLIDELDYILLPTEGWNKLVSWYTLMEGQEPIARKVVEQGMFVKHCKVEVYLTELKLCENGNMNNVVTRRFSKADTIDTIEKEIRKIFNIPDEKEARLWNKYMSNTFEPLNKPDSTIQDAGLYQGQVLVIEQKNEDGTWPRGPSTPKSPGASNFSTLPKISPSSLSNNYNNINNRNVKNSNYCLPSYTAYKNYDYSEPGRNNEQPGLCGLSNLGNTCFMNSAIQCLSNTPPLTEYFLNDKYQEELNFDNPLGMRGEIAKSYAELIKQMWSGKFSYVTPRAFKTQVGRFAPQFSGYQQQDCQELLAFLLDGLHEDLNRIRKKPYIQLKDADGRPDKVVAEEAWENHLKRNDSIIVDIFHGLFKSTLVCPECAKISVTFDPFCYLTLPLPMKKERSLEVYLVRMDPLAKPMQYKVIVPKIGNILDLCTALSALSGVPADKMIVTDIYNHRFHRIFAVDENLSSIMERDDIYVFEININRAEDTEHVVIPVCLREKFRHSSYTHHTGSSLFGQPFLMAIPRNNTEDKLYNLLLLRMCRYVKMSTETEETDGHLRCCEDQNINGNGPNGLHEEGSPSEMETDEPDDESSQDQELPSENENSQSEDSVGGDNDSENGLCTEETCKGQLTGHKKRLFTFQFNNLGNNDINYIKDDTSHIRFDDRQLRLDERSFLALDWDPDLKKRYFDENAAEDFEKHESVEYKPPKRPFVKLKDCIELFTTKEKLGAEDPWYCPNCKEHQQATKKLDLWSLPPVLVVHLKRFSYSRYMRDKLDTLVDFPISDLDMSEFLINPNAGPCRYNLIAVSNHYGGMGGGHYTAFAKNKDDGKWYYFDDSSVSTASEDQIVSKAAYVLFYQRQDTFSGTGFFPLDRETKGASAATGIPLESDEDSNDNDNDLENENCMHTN
UniProt P63085: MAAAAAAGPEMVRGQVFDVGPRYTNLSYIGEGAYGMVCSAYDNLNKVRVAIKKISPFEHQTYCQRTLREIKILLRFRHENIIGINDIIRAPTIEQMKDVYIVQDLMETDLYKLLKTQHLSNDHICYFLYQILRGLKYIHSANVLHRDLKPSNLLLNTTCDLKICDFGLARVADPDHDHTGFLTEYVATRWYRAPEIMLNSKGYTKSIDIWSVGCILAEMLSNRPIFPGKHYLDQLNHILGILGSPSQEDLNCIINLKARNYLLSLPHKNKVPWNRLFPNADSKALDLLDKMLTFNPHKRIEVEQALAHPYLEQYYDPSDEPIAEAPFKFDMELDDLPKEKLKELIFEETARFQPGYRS

Target: Flag-tagged USP15 (mouse (from the prefix m in mUSP15)) (UniProt Q8R5H1)
Assay: co-IP; 293T cells co-transfected with Flag-USP15 and HA-ERK2; lysates in RIPA buffer immunoprecipitated with anti-HA or anti-Flag antibodies and Protein A/G PLUS-Agarose; blots with anti-Flag or anti-HA

## HA-tagged ERK2 (from UniProt P63085 1-358) (enzyme)
  binding: binds

These are yes or no findings as the source states them, for the method shown. In cells and extracts the contact can be indirect. Binding can be weak; no strength is given.
